# The shares of active, inactive and inconclusive entries below differ from those in the screen. Potencies of inconclusive entries are doubtful fits and often do not repeat. The source made the active and inactive calls. Calls follow the shape of the dose curve; as a rule, active = well fitted inhibition curve with a large enough effect; inconclusive = small, poorly fitted or top-dose-only effect, or effect the other way; inactive = flat fitted curve, though single readings scatter.
# Experiment: Counterscreen Assay for Enhancers of SMN2 Splice Variant Expression: Modulation of SMN1 Expression for Further Probe SAR
# Details: HEK293 SMN1-luciferase reporter, luminescence, 30-36 h; series mostly up to 46.1 µM; activity change, negative = inhibition: at the top concentration
# From the text: NIH Chemical Genomics Center [NCGC] NIH Molecular Libraries Probe Production centers Network [MLPCN] MLPCN Grant: R03 MH084179-01 Assay Submitter (PI): Elliot Androphy NCGC Assay Overview: Spinal muscular atrophy (SMA) is caused by insufficient levels of the survival motor neuron protein SMN. The SMN locus on chromosome 5q13 contains two inverted copies of SMN called SMN1 and SMN2 which are 99% identical at the amino acid level. SMN1 is a fully functional protein and SMN2 skips exon 7 90% of the time. Skipping of exon 7 produces non-functional protein product. 10% of the SMN2 protein includes exon 7 and is fully functional. In the SMA disease state, mutations in the SMN1 locus are the cause of the disease state. Because only 10% of SMN2 is of the fully functional form, it is not sufficient to overcome the deficiency produced by the loss of the SMN1 product. A therapy that either increases the amount of SMN2 product made increases the inclusion of exon 7 has been proposed for the treatment of SMA. We have designed an assay to identify small molecules that can increase the amount of functional SMN2 product by appending a luciferase reporter gene after the native SMN2 gene, such that inclusion of exon 7 in the expressed product places the luciferase sequence in frame, thus generating functional luciferase enzyme. As a counterscreen for nonspecific modulators of expression, we have run compounds through a similar assay that measures expression of an SMN1-luciferase chimera.
# NCGC Assay Protocol Summary: This screen utilizes a luciferase reporter gene assay, combining the promoter with the major portion of the native SMN1 cDNA (exons 1 -7, intron 8 , exon 8 fused to luciferase) stably expressed in HEK293 cells. Compounds that increase luciferase signal presumably enhance expression of the functional SMN1 splice variant. Passaging media contained DMEM w/ glutamax (+phenol red) 10% FCS, 1x pen/strep, 200 ug/ml hygro, 1x sodium pyruvate. Assay media contained DMEM w/ glutamax (-phenol red) 10% FCS, 1x pen strep, 1x pyruvate Sequence, Parameter, Value, Description (1) Cells, 5 uL, 2000 cells/well, 1536 TC treated White solid bottom plate (2) Time, 10-12 hours, 37C 5% CO2 (3) Compound, 23 nl, MLSMR Library (4) Control Compound, 23 nL, Sodium butyrate st 4.5mM (final) conc (5) Time, 30-36 hours, 37C 5% CO2 (6) Reagent, 3 ul, One Glo (TM) from Promega (7) Time, 5-15 minutes, Room temp (8) Detector, Viewlux: luminescent read, 60 second integration, high speed 2x binning Keywords: Spinal muscular atrophy, SMA, SMN2, high throughput screening, MLSMR, MLPCN, NIH Roadmap, qHTS and NCGC
Compound,Potency,"activity change, negative = inhibition"
NC(=O)C1CCN(c2ncc(-c3cccc(N4CCOCC4)c3)s2)CC1,"inconclusive: 122 µM [inhibitor, partial curve, poor fit]",
NC(=O)C1CCN(c2nccc(-c3ccc4c(c3)OCCO4)n2)CC1,"inconclusive: 30.7 µM [inhibitor, partial curve, poor fit]",
CN(C)c1cccc(-c2ncc(F)c(N3CCC(C(N)=O)CC3)n2)c1,,inactive: -14.2%
O=C(NCCc1ccccc1)C1CCN(c2nc(-c3ccc(Br)cc3)cs2)CC1,,inactive: -15.8%

# From PubChem BioAssay AID488821 (National Center for Advancing Translational Sciences (NCATS), 2010)
